Data: patent US20260159549A1
No constants are given. Whether binding was seen depends on the method and setting. Some entries that bind do so weakly or less than the wild type.

Legend:
PLPx6 [1] = target: T1, PLPx6; test: specificity test of the six designs (method not given; BLI elsewhere)
T1 sequence (peptide): PLPPLPPLPPLPPLPPLP

PLPx6 [2] = target: T1, PLPx6; test: co-crystal structure; affinity told in words
PLPx6 [3] = target: T1, PLPx6; test: flow cytometry, binder on yeast after 1-3 SSM substitutions, biotinylated peptide
PLPx4 = target: T2, PLPx4; test: repeat number series, method not named
T2 sequence (peptide): PLPPLPPLPPLP

PLPx6 [4] = target: T1, PLPx6; test: repeat number series, method not named

- binding (PLPx6 [1]): binds
- binding (PLPx6 [2]): binds
- binding (PLPx6 [3]): binds
- binding (PLPx4): binds
- binding (PLPx6 [4]): binds
B1: RPB_PLP1_R6 (designed binder)
chain: PEEERIKYVITVVEQIAKDAHRNGQEELAKLAERTAEEAKKATERGEEETLRIVYVIVVVLQIALEAHRNGQEELAKLALRTAEEAIKATERGEEETLRIVYVIVVVLQIALEAHRNGQEELAKLALRTAEEAIKATERGEEETLRIVYVIVVVLQIALEAHRNGQEELAKLALRTAEEAIKATERGEEETLRIVYVIVVVLQIALEAHRNGQEELAKLALRTAEEAIKATERGEEETERIVYDIVVVLQEALEAHRNGEEERAKKALDEARRRIEATERGE
